This is one part of the list.

Protein sequences, listed by entry. Tags and fused reporters are not part of them.
UniProt Q0JBA9, entry or part of it: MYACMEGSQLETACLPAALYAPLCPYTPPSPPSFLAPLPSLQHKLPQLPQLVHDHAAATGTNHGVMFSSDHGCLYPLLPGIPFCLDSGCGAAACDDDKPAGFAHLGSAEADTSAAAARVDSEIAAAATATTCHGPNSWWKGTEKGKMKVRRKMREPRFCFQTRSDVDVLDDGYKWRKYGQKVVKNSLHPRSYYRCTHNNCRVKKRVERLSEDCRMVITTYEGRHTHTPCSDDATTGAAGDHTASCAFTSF

The assay has as its target OsWRKY34 (Oryza sativa, UniProt Q0JBA9 1-250). Description: protein-binding microarray (RPBM); PBS, 2% BSA, 51.3 ng/ul salmon testes DNA, 50 uM zinc acetate, 200 nM TF, 25 C, 1 h; high values mean tight binding. The conditions noted are these: protein: recombinant; tags: N-terminal polyhistidine and DsRed monomer fusion (pET32a); label: CyDye5-dUTP incorporated in the synthesized complementary strand; 3' TTTTT single-stranded linker to array surface; dsDNA, one strand shown. An outline of the steps:
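Binding signal here means per-feature fluorescence intensity in arbitrary units. The values were read on an Axon 4000B scanner after a custom Agilent array, double-stranded by primer extension with Cy5-dUTP, was incubated with 200 nM protein at 25 °C for 1 h in PBS with 2% BSA, salmon testes DNA and 50 µM zinc acetate, then washed. The proteins were transcription factors with an N-terminal polyhistidine tag and DsRed, expressed in E. coli BL21-CodonPlus and purified on Ni–NTA.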
“GTCAGTGGTTCATCTGGACCAAAACCCAACGAGCTAGTCTCGGAGTCACCTAGTGCAG”: the binding signal is 8520 fluorescence intensity (a.u.). Regarding “CTCCTCTTGCTCTATCGATCACACATTCTCTCTCTCACTCCGGAGTCACCTAGTGCAG”, the binding signal was 14100 fluorescence intensity (a.u.). As for “CATTACTTTTTTTTAAACATTTTATTTCCATTTTTAATTTCGGAGTCACCTAGTGCAG”, the figure is 8840 fluorescence intensity (a.u.). As for “TCTCGGCGCGGTAACCCTCGCGCCCCACCACATATTTTCACGGAGTCACCTAGTGCAG”, the figure is 8060 fluorescence intensity (a.u.); as for “TGTCTGGTCAACGCACAATTTCGGTCAGTAACTCCCTGGCCGGAGTCACCTAGTGCAG”, 9770 fluorescence intensity (a.u.); as for “CTCTCTACACTGTCACTCTCACTGCACTTCCTAGCTTAGCCGGAGTCACCTAGTGCAG”, 10400 fluorescence intensity (a.u.). Regarding “CACACCAGCTTTATCTTCCACTTCTACAGCACTGCATCAACGGAGTCACCTAGTGCAG”, the binding signal is 8910 fluorescence intensity (a.u.). The value for “CATACGTTGAAACAACCACTACTACTACCACTACGCCTAACGGAGTCACCTAGTGCAG” was 8600 fluorescence intensity (a.u.); that for “GCAGCCATTTCCAGAGCCGGACACTCCTGTGCCGCGTTTTCGGAGTCACCTAGTGCAG” was 8770 fluorescence intensity (a.u.). The value for “TATACTTCGTACTGACCACCAGCTTCGTGCGCATGCATGACGGAGTCACCTAGTGCAG” was 8840 fluorescence intensity (a.u.); that for “TATTTGACATTTAATTGTTGACATTATATGAACTGATTGTCGGAGTCACCTAGTGCAG” was 8120 fluorescence intensity (a.u.); that for “TTGGGCAGATCCTTCGTCTGTATCGTATTGTGCTTTTGATCGGAGTCACCTAGTGCAG” was 8470 fluorescence intensity (a.u.). As for “GTGCGATTTCTCCCCGTTTCTTGGCCTCGCCACTCCGCCACGGAGTCACCTAGTGCAG”, the figure is 8070 fluorescence intensity (a.u.); as for “AAGGTGGTACTGTACGCTCCATAGCTTTTCCTTCCGGTTTCGGAGTCACCTAGTGCAG”, 9220 fluorescence intensity (a.u.). Take “ACTACCTCTGTTTCTTATTATAAGTCGTTTTGACCTATTTCGGAGTCACCTAGTGCAG”: the binding signal was 8600 fluorescence intensity (a.u.). As for “GGGGTCACAGCCAAAAGCCCAAAACTCTCATGCCCGCGCCCGGAGTCACCTAGTGCAG”, the figure is 8070 fluorescence intensity (a.u.); as for “GGCAGAGTAATTTTCACACACATTCCTCCACCGCGCCGTCCGGAGTCACCTAGTGCAG”, 8790 fluorescence intensity (a.u.); as for “TGATCGGTATCATGTGTCAGGTATGTGCTTTGATGATTCACGGAGTCACCTAGTGCAG”, 8840 fluorescence intensity (a.u.). The value for “ATTTGGAGAACTTGCTGGGAGATGATTGGTTTTATTTGGACGGAGTCACCTAGTGCAG” was 8780 fluorescence intensity (a.u.); that for “ACCTTACACAAGCATTTGGTCTGCTTTACGGCGGATTGCACGGAGTCACCTAGTGCAG” was 9530 fluorescence intensity (a.u.); that for “CACGGCCGTTTCCGTACGCCTCTGCCTCTCACCGCGCCCGCGGAGTCACCTAGTGCAG” was 10400 fluorescence intensity (a.u.). Turning to “GCAGTCAACAGCTAACACTCTACCCGCCACGGTCGCCAGCCGGAGTCACCTAGTGCAG”, the binding signal was 8910 fluorescence intensity (a.u.). Regarding “CCTACCTCCTACTCCTTATCCTCCACTTCGTCGCATTACACGGAGTCACCTAGTGCAG”, the binding signal was 8750 fluorescence intensity (a.u.). Take “GGATAAAAGTTTTCACTACATTTGCTTTGTTACACTTGTGCGGAGTCACCTAGTGCAG”: the binding signal was 9060 fluorescence intensity (a.u.). As for “TTCTCTAGGGGAATCGGACTCTTTTTTTTTTGTCTTTTTTCGGAGTCACCTAGTGCAG”, the figure is 12800 fluorescence intensity (a.u.); as for “TAGTTGTAAATGTTGTAGCCGTTTGTTGTTGTGTGTAATGCGGAGTCACCTAGTGCAG”, 8540 fluorescence intensity (a.u.).

Regarding “GCGTGTGTGGTTTAAATATAAACTTGTTTGCAATTTTTTTCGGAGTCACCTAGTGCAG”, the binding signal is 9150 fluorescence intensity (a.u.). As for “TATTTTCTTCCCGATTTACTCTGTTTCGAGCGAACAAAGGCGGAGTCACCTAGTGCAG”, the figure is 8490 fluorescence intensity (a.u.); as for “GTGAGTGTTTGGGCTAACACTGTATTCTTATTTCTTAATACGGAGTCACCTAGTGCAG”, 9490 fluorescence intensity (a.u.). The value for “CATCACCCGACCAGTCAAATCAGGGCGTTATTTTCATGATCGGAGTCACCTAGTGCAG” was 8820 fluorescence intensity (a.u.); that for “ACGAGAAGACCATGTATATTCATTTTCCTTGGCCTATCAACGGAGTCACCTAGTGCAG” was 9670 fluorescence intensity (a.u.); that for “TTGTTGCCATTCTCTTCGTGCATTTGTTTAGTAAAATTATCGGAGTCACCTAGTGCAG” was 11800 fluorescence intensity (a.u.). As for “AATCTACTACCTCTATTTTATATTATAACTTGTTTTGGGTCGGAGTCACCTAGTGCAG”, the figure is 10700 fluorescence intensity (a.u.); as for “TCCTATAAAAAAAAAAATCTCCGCAGCCGACTTTCCATTCCGGAGTCACCTAGTGCAG”, 8320 fluorescence intensity (a.u.); as for “TCTATTTTATAATCGGTGTGTTTGACTGGTATTTTTTAGCCGGAGTCACCTAGTGCAG”, 8930 fluorescence intensity (a.u.). With “CCCACGCACACCCCGCTGCTTCCGATCAAATCGATCCCCACGGAGTCACCTAGTGCAG”, the binding signal is 10400 fluorescence intensity (a.u.). As for “TTTGTGTACTAAATCTCCTTATGGGAGGGGATCGTTTTAACGGAGTCACCTAGTGCAG”, the figure is 12500 fluorescence intensity (a.u.); as for “GTTTTTTCGCCCGGTTTTTTCTCGCCGGTTTTTTCGCACGCGGAGTCACCTAGTGCAG”, 8290 fluorescence intensity (a.u.). As for “ATCCTAAAATGTTTGACACCATTGACTTTTTTAAAAATGTCGGAGTCACCTAGTGCAG”, the figure is 8790 fluorescence intensity (a.u.).

Consider “GGCGAACCCCAGCCGCCGTCCCTTGGTCCAGTCCATCTTCCGGAGTCACCTAGTGCAG”, for which the binding signal was 11200 fluorescence intensity (a.u.).

Turning to “AACACCACGAAACTTTACACCCTATTTGACGTCAAGAACTCGGAGTCACCTAGTGCAG”, the binding signal is 8770 fluorescence intensity (a.u.). “TGCTGCCACTAAGTGTTACTATACAACATTCTCCTCTAAACGGAGTCACCTAGTGCAG”: the binding signal is 8710 fluorescence intensity (a.u.).
